Data as given in patent publication US20090304580A1.
No constants are given. Whether binding was seen depends on the method and setting. Some results given as binding are weak or reduced against the parent protein; the word gives no strength.

Columns and labels:
[1] = target: T1, linear phage-displayed peptide …; assay: degenerate phage library, panned and screened as before (hPAM4 and mPAM4)
T1 sequence (peptide): WTWNITKEYPQP

[2] = target: T2, linear phage-displayed peptide …; assay: screen of phage-displayed peptides for reactivity with hPAM4 and mPAM4
T2 sequence (peptide): WTWNITKAYPLP

binding [1]: binds
binding [2]: binds
B1: murine PAM4 monoclonal antibody (antibody, V domains shown)
VH: EVQLQESGPELVKPGASVKMSCKASGYTFPSYVLHWVKQKPGQGLEWIGYINPYNDGTQYNEKFKGKATLTSDKSSSTAYMELSRLTSEDSAVYYCARGFGGSYGFAYWGQGTLITVSA
VL: DIVMTQSPAIMSASPGEKVTMTCSASSSVSSSYLYWYQQKPGSSPKLWIYSTSNLASGVPARFSGSGSGTSYSLTISSMEAEDAASYFCHQWNRYPYTFGGGTKLEIK
